The text below walks through data of the M2OR odorant receptor database.

Molecules are shown by their SMILES. Only a part is listed here, and it is no random draw. Calls are pooled over several reports, among them a noisy single-well screen. The list shows a part of the results.

Common to all, as to details: stereoisomer not certain
The target in one assay is T1, OR52K2 (Homo sapiens) (UniProt Q8NGK3).
T1 sequence (whole entry): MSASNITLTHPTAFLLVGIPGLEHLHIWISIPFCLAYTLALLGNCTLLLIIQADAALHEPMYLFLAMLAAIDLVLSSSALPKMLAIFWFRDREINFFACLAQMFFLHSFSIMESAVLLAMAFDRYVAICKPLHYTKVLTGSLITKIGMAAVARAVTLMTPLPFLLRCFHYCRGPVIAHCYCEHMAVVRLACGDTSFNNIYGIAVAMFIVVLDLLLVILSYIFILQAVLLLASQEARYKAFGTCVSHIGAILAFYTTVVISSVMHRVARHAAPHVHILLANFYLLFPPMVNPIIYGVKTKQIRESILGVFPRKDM
The procedure, abridged:
(§1)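 Each receptor–molecule pair is labelled responsive or non-responsive (inactive) according to whether the original authors judged the measured signal statistically different from baseline. The data were taken from the main text and supplementary material of published papers and checked for typos and inconsistencies. Assay methods differed by source, with transient luciferase assays in mammalian cell lines being common.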

The next assay addresses T2, OR52N5 (Homo sapiens) (UniProt Q8NH56).
T2 sequence (whole entry): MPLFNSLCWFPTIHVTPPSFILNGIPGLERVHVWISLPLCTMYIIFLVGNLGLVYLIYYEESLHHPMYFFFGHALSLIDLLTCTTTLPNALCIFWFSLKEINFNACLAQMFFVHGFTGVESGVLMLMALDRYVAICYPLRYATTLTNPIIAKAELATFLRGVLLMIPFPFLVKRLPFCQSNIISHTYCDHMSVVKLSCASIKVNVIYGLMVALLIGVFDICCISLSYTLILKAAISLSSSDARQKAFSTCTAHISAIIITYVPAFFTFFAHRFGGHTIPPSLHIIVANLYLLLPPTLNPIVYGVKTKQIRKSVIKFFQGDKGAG
The procedure, abridged:
as §1

In the next assay the target is T3, OR56A1 (Homo sapiens) (UniProt Q8NGH5).
T3 sequence (whole entry): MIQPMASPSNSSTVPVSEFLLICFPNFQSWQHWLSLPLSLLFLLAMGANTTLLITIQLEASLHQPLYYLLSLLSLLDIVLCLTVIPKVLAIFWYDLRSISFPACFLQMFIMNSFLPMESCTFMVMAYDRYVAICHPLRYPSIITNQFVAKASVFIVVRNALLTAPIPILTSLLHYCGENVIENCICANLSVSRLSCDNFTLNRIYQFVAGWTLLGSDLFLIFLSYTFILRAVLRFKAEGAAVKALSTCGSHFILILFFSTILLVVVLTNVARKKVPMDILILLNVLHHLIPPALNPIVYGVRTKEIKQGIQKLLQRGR
The procedure, abridged:
as §1

For a further assay, the target named is T4, OR56A4 (Homo sapiens) (UniProt Q8NGH8).
T4 sequence (whole entry): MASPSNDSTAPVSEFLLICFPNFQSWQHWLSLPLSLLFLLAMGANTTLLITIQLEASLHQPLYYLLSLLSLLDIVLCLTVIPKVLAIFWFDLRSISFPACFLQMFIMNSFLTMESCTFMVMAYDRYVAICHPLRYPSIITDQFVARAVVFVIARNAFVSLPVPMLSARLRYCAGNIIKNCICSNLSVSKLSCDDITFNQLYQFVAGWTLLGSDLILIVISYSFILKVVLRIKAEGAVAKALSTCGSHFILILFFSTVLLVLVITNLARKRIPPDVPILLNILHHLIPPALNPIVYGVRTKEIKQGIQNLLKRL
The procedure, abridged:
as §1

A further assay deals with T5, OR56A5 (Homo sapiens) (UniProt P0C7T3).
T5 sequence (whole entry): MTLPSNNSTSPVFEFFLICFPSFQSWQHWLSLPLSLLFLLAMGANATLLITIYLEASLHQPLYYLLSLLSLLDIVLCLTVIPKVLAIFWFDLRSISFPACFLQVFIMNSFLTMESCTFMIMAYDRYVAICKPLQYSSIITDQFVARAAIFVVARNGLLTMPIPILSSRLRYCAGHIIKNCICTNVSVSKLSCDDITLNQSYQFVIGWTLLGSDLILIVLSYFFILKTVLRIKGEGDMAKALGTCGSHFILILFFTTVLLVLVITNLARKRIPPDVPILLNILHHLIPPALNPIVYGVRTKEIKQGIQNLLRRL
The procedure, abridged: as §1

In assay [1] the test system is T6, OR5A1.
T6 sequence (whole entry): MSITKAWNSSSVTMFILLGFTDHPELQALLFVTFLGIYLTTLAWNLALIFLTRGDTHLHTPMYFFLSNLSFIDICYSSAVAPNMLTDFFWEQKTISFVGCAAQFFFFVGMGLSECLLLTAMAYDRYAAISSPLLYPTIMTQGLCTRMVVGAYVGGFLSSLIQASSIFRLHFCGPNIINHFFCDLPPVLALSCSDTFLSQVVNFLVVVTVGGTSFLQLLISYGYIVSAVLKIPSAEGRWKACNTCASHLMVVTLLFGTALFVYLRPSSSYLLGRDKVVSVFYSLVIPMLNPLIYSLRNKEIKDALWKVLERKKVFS
The procedure, abridged: as §1

In assay [2] the test system is T7, OR5A1.
T7 sequence (whole entry): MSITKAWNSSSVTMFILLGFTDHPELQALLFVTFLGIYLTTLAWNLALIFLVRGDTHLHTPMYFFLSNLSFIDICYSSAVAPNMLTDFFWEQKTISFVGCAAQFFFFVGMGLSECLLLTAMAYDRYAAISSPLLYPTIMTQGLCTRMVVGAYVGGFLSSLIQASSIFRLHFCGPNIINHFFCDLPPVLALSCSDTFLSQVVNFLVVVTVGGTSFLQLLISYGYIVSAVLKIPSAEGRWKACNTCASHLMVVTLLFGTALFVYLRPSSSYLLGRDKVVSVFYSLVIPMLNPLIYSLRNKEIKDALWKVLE
The procedure, abridged:
as §1
This is another data set of the same source.

Assay [3] deals with T8, OR5A1.
T8 sequence (whole entry): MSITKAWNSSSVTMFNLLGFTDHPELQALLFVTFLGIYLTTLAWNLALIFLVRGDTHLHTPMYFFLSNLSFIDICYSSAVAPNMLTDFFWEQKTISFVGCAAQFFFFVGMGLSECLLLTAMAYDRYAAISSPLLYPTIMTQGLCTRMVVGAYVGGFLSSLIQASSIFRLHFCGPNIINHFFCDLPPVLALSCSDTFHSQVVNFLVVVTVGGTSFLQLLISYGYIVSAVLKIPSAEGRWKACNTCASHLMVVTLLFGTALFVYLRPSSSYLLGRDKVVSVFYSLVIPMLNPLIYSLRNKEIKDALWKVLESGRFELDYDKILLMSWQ
The procedure, abridged: as §1
The source holds these as a separate data set.

A further assay has as its target T9, OR5A2 (Homo sapiens) (UniProt Q8NGI9).
T9 sequence (whole entry): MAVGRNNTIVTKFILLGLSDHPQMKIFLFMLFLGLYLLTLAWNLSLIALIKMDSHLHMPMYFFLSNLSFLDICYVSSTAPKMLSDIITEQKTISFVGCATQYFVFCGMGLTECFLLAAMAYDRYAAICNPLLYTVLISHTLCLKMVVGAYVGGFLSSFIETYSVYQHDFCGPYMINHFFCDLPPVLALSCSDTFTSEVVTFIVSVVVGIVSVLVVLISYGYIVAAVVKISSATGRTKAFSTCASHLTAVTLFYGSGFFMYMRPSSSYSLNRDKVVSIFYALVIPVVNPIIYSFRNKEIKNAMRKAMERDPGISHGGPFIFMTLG
The procedure, abridged: as §1

In the next assay the target is T10, OR5AK2 (Homo sapiens) (UniProt Q8NH90).
T10 sequence (whole entry): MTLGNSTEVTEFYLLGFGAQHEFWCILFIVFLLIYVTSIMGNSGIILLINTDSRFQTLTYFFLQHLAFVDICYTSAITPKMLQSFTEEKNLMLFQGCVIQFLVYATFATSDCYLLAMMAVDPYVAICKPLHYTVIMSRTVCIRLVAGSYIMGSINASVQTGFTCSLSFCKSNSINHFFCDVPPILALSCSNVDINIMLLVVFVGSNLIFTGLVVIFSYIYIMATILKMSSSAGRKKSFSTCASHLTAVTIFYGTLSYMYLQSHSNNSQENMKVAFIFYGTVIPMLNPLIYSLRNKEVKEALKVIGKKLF
The procedure, abridged: as §1
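Note: active if original authors judged signal statistically different from baseline.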

Consider `CS`, for which the “odorant receptor agonist call” value with OR52K2 (Homo sapiens), with OR52N5 (Homo sapiens), in the assay with OR56A1 (Homo sapiens), in the assay with OR56A4 (Homo sapiens), with OR5A1 [1] and in the assay on OR5A1 [2] was “inactive” throughout. In addition, the “odorant receptor agonist call” value with OR5A1 [3], with OR5A2 (Homo sapiens) and with OR5AK2 (Homo sapiens) was “inactive” in each case. Further, the “odorant receptor agonist call” value with OR56A5 (Homo sapiens) is “active”.
